From PubChem BioAssay AID2685 (National Center for Advancing Translational Sciences (NCATS), 2010)
The whole screen tested about 320,000 compounds, of which about 2,100 (0.66%) were called active. Inconclusive results, whose numbers are uncertain, are shown with a selection of clear calls. Calls come from the whole dose curve; as a rule, active = well fitted inhibition curve with a large enough effect in the signal ratio, with a control signal flat (not every such curve was filed as active); inconclusive = small, poorly fitted or top-dose-only effect, or effect the other way, or a change in a side signal; inactive = flat fitted curve, though single readings scatter; the % refers to the signal ratio. Potencies beside an inconclusive call are fits to weak or partial responses and may not hold up.
% is set by controls: 0 for no effect and ±100 for the full control effect; potency is the fitted concentration of half-maximal effect.

Assay: qHTS Assay for Lipid Storage Modulators in Drosophila S3 Cells
Conditions: BODIPY lipid droplet fluorescence, 18-24 h, cells fed with added oleic acid; lipid storage change, negative = inhibition: at 46.1 µM (top of the series) unless noted
Summary of the method: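 Drosophila S3 cells got compounds at several concentrations plus oleic acid (400 uM solution). Laser-scanning cytometry with 488 nm excitation read lipid droplets at 500-530 nm and cells at 575-640 nm. Percent activity was relative to 20 uM Triacsin C.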
For `C=CCC1(CC=C)CCCN1C(=O)c1cc(COc2ccccc2SC)on1`, the lipid storage change, negative = inhibition was inconclusive: -85.7%. For `COc1cccc(OCCSc2nc(N)cc(N)n2)c1`, the Potency was inconclusive: 29.1 µM [falling, single point]. With `CCOC(=O)c1[nH]c(=O)[nH]c1CSCCO` the lipid storage change, negative = inhibition was inconclusive: -190%. In the case of `COc1ccc(C2C(C(=O)c3sc(C)nc3C)=C(O)C(=O)N2CCN(C)C)cc1OC` (stereo not given), the lipid storage change, negative = inhibition is reported as inconclusive: 2.32%. For `CCCCCc1nc2c(c3c1CCCC3)CCCC2`, the lipid storage change, negative = inhibition was inconclusive: 25.2%. In the case of `O=C1CC(c2ccccc2)=NN1c1nc(-c2ccccc2)cs1`, the lipid storage change, negative = inhibition is reported as inconclusive: -11.6%. With `COc1ccc(C(=O)ON=C2CCN(c3ccc([N+](=O)[O-])cc3)CC2)cc1` the lipid storage change, negative = inhibition was inconclusive: -11.1%. For `COc1ccc(Cn2nnnc2C(CC(C)C)N2CCC(C(N)=O)CC2)cc1` (stereo not given), the Potency was inconclusive: 0.461 µM [falling, full curve]. For `O=S(=O)(Nc1ccc(Cc2ccncc2)cc1)c1ccc(Cl)cc1`, the “lipid storage change, negative = inhibition” value was inactive: 5.23%. For `Nc1ccc(NC(=O)Nc2ccc(N)cc2)cc1`, the lipid storage change, negative = inhibition was inconclusive: -16.7%. For `C=CCn1c(SCC(=O)N(C)C)nc2cc(C(=O)O)ccc2c1=O`, the Potency was inconclusive: 1.64 µM [activator, partial curve]. With `COc1cc2c(cc1OC)CN(Cc1ccc(C)cc1)CC2` the lipid storage change, negative = inhibition was inconclusive: 24.8%. With `CCOC(=O)C1CCN(CC(=O)N2CCc3ccccc32)CC1` the Potency was inconclusive: 29.1 µM [falling, single point]. With `CC(C)N(Cc1cnn(C)c1)Cc1nc(Cc2ccccc2Cl)no1` the lipid storage change, negative = inhibition was inconclusive: 23.5%. In the case of `CN1CCN(c2ccc(CNS(=O)(=O)c3ccc(Cl)cc3)cc2)CC1`, the lipid storage change, negative = inhibition is reported as inconclusive: -0.796%. With `CCOC(=O)CNS(=O)(=O)c1cc(-c2nn(C)c(=O)c3ccccc23)ccc1C` the lipid storage change, negative = inhibition was inconclusive: -39.5%. For `Cc1ccc(S(=O)(=O)N2CCN(C(=O)C(C)Cn3nc(C)c(C)c3C)CC2)cc1C` (stereo not given), the lipid storage change, negative = inhibition was inconclusive: 61.8%. In the case of `COc1cccc(-n2c(CN3CCN(Cc4ccccc4)CC3)nc3ccc([N+](=O)[O-])cc3c2=O)c1`, the lipid storage change, negative = inhibition is reported as inconclusive: 35%. In the case of `COc1ccc(CCCC(=O)NCCc2ccccc2)c(C)c1`, the lipid storage change, negative = inhibition is reported as inconclusive: 74.6%. With `O=C(c1ccc2c(c1)OCCO2)C1CCN(C(=O)c2ccc(F)c(F)c2)CC1` the Potency was inconclusive: 2.59 µM [activator, single point]. For `O=C(Nc1cccc(CNCCc2c[nH]c3ccccc23)c1)c1ccccc1Cl`, the Potency was inconclusive: 3.66 µM [activator, full curve]. In the case of `Clc1ccc(CN2C3=NCCCN3c3ccccc32)cc1Cl`, the Potency is reported as inconclusive: 29.1 µM [falling, single point]. With `CCn1ccnc1CN(C)Cc1cn(-c2ccc(C)cc2)nc1-c1cccc(C)c1` the lipid storage change, negative = inhibition was inconclusive: 0.772%. In the case of `CCOc1ccc(N=C2C(=O)Nc3ccc(C)c(Br)c32)cc1`, the lipid storage change, negative = inhibition is reported as inconclusive: -81%. For `CC(C)c1ccc(CCNC(=O)CCNS(=O)(=O)c2ccc(Br)cc2)cc1`, the lipid storage change, negative = inhibition was inconclusive: 0.364%. In the case of `CCOc1ccc(CSC(=N)N)cc1`, the lipid storage change, negative = inhibition is reported as inconclusive: 21.1%. In the case of `O=[N+]([O-])c1cc(S(=O)(=O)N2CCOCC2)ccc1OCc1cccc(Cl)c1`, the lipid storage change, negative = inhibition is reported as inconclusive: -36.6%. For `C=CCNC(=O)CCCCC(=O)NCC=C`, the lipid storage change, negative = inhibition was inconclusive: -10.6%. In the case of `Cc1ccc2c(c1)NCCO2`, the lipid storage change, negative = inhibition is reported as inconclusive: 15.2%. For `CCN(CC(=O)Nc1ccc(NC(C)=O)cc1)C(=O)CSCC(=O)Nc1ccc(C)cc1`, the lipid storage change, negative = inhibition was inconclusive: 4.43%. In the case of `CCOC(=O)c1ccc(NC(=O)c2c(Cl)cc(C)nc2C)cc1`, the Potency is reported as inconclusive: 20.6 µM [falling, single point]. In the case of `CSCC[C@H](NC(=O)N1CCn2c1nc1ccccc12)C(=O)N1CCCCC1`, the lipid storage change, negative = inhibition is reported as inconclusive: -31.1%. For `COc1ccc(/C=N/Nc2nc(-c3cccnc3)nc3ccccc23)cc1OC`, the “lipid storage change, negative = inhibition” value was inactive: -5.18%. For `COC(=O)CCCCCCCC(=O)Nc1nnc(C(F)(F)F)s1`, the lipid storage change, negative = inhibition was inconclusive: -22.6%. In the case of `O=S(=O)(c1ccc(Cl)cc1)N1CCC(N2CCOCC2)CC1`, the lipid storage change, negative = inhibition is reported as inconclusive: 0.409%. For `O=C(NNC(=O)c1cccnc1SCc1cccc([N+](=O)[O-])c1)c1ccc(F)cc1`, the lipid storage change, negative = inhibition was inconclusive: 29.8%. In the case of `Cc1cc2oc(=O)cc(CN3CCOCC3)c2cc1Cl`, the lipid storage change, negative = inhibition is reported as inconclusive: 7.36%. In the case of `Cc1nc(SCC(=O)c2cccc([N+](=O)[O-])c2)n[nH]1`, the lipid storage change, negative = inhibition is reported as inconclusive: -30.9%. For `COc1ccc(C)cc1NC(=O)CSc1nc(SC)ns1`, the Potency was inconclusive: 1.46 µM [activator, partial curve]. With `Cn1cc(S(=O)(=O)Oc2ccccc2)c(=O)n(C)c1=O` the lipid storage change, negative = inhibition was inconclusive: -21.1%. For `COc1ccc2nc(SC(C(=O)c3ccccc3)c3ccccc3)nc(C)c2c1` (stereo not given), the lipid storage change, negative = inhibition was inconclusive: -37.1%. In the case of `CCc1c(C(=O)NNC(=S)NC2CCCCC2)csc1C`, the Potency is reported as inconclusive: 23.1 µM [falling, single point]. For `COCCCN(C(=O)CCOc1ccccc1C)c1c(N)n(Cc2ccccc2)c(=O)[nH]c1=O`, the lipid storage change, negative = inhibition was “inconclusive”. With `NC(=O)NC(=O)CSc1nc(C2CCCCC2)n(-c2ccccc2)n1` the lipid storage change, negative = inhibition was inconclusive: -16.1%. For `CCCCCCC(=O)Nc1nc(C)c(-c2csc(Nc3cccc(OC)c3)n2)s1`, the lipid storage change, negative = inhibition was inconclusive: -10.1%. For `N/C(CSc1ccc(Cl)cc1)=N\S(=O)(=O)c1ccc(Cl)cc1`, the Potency was inconclusive: 29.1 µM [cytotoxic, single point]. In the case of `CCOc1ccccc1COC(=O)c1cccc(-n2cnnn2)c1`, the lipid storage change, negative = inhibition is reported as inconclusive: -17.3%. With `CC(C)(C)NCC(=O)c1c[nH]c2ccccc12` the lipid storage change, negative = inhibition was inconclusive: 12.4%. In the case of `Cc1[nH]n(-c2ccccc2)c(=O)c1C(=O)c1ccccc1`, the lipid storage change, negative = inhibition is reported as inconclusive: -5.66%. For `CCN(CC)CC(=O)N1c2ccccc2Oc2c(c(=O)n(C)c(=O)n2C)C1c1cccc([N+](=O)[O-])c1` (stereo not given), the “lipid storage change, negative = inhibition” value was inactive: 9.31%. In the case of `CCOC(=O)c1c(CN(CC)CC)oc2cc(Br)c(O)cc12`, the lipid storage change, negative = inhibition is reported as inconclusive: 0.356%. With `CCC1CCCCN1C(=O)COc1c(Br)cc(Br)c2cccnc12` (stereo not given) the lipid storage change, negative = inhibition was inconclusive: -39.3% [cytotoxic] [at 0.00295 µM]. With `CCCCC(c1nnnn1CC1CCCO1)N1CCN(c2cccc(C)c2C)CC1` (stereo not given) the Potency was inconclusive: 29.1 µM [activator, single point]. In the case of `Cc1c(Br)cc(C(=O)NC2CCCCC2)c(C)c1C`, the “lipid storage change, negative = inhibition” value is reported as inactive: -4.38%. For `Cc1ccccc1Cn1c(=O)n(Cc2ccco2)c(=O)c2ccccc21`, the Potency was inconclusive: 14.6 µM [activator, partial curve, poor fit]. For `CC1Cc2ccccc2N1C(=O)C1CCN(S(=O)(=O)c2cccs2)CC1` (stereo not given), the lipid storage change, negative = inhibition was inconclusive: -110%. With `COC(=O)c1ccc(Oc2nc(Nc3ccc(F)cc3)nc(N3CCCC3)n2)cc1` the Potency was inconclusive: 32.6 µM [falling, single point]. For `CCc1n[nH]c(=S)n1/N=C/c1cc(Br)c(O)c(OC)c1`, the lipid storage change, negative = inhibition was inconclusive: 11.2%. For `CC(C)C1Nc2ccc(C(=O)NCc3ccco3)cc2NC1=O` (stereo not given), the Potency was inconclusive: 18.4 µM [activator, single point]. For `Cc1ccc(S(=O)(=O)N2CCCN(C(=O)c3ccc(-n4cccn4)cc3)CC2)cc1`, the lipid storage change, negative = inhibition was inconclusive: 22.4%. For `COc1cc(C(=O)ONC(=O)c2ccc(OC(F)F)cc2)cc(OC)c1OC`, the lipid storage change, negative = inhibition was inconclusive: -41.8%. With `CCOc1ccc(N(C)S(=O)(=O)c2ccc(C)c(C(=O)NCc3ccccc3OC)c2)cc1` the lipid storage change, negative = inhibition was inconclusive: -14.3%. With `O=C(COc1cc(O)c2c(=O)cc(-c3ccccc3)oc2c1)c1cccc([N+](=O)[O-])c1` the Potency was inconclusive: 6.51 µM [falling, single point]. For `O=C(c1ccc([N+](=O)[O-])cc1)N1CCN(Cc2ccccc2)CC1`, the “lipid storage change, negative = inhibition” value was inactive: 4.25%. In the case of `Cc1ccc2nc(NC(=O)CSCc3ccccc3)sc2c1`, the Potency is reported as inconclusive: 23.1 µM [activator, partial curve]. In the case of `CCc1ccc(N(C(=O)c2csnn2)C(C(=O)NC2CCCCC2)c2cccnc2)cc1` (stereo not given), the lipid storage change, negative = inhibition is reported as inconclusive: -49.6%. In the case of `CCOC(=O)C(NC(=O)c1cccc(Cl)c1)(OCc1ccc(F)cc1)C(F)(F)F` (stereo not given), the lipid storage change, negative = inhibition is reported as inconclusive: -37%. For `O=C1CCN(Cc2ccc([N+](=O)[O-])cc2)CCN1CCO`, the lipid storage change, negative = inhibition was inconclusive: -79.4%. For `O=C(/C=C/c1ccc(OCCCF)cc1)NCc1cccc(Cl)c1`, the lipid storage change, negative = inhibition was inconclusive: 0.466%. With `O=C1CCCC/C1=C/NCc1ccccc1` the lipid storage change, negative = inhibition was inconclusive: 1.84%. For `COc1ccc2c(CC(=O)NNC(=O)c3cccs3)coc2c1`, the Potency was inconclusive: 16.4 µM [falling, single point]. With `O=C(CN1CCC(N2CCCCC2)CC1)N1CCOCC1` the Potency was inconclusive: 0.146 µM [falling, full curve, poor fit]. For `CCO/C(=C/c1sc2ccc(OC)cc2[n+]1CCCS(=O)(=O)[O-])CC`, the Potency was inconclusive: 20.6 µM [falling, single point]. With `COc1ccc(C(=O)/C=C/Nc2c(C)n(C)n(-c3ccccc3)c2=O)cc1OC` the Potency was inconclusive: 0.0065 µM [falling, full curve, poor fit]. For `CC1CCCCN1S(=O)(=O)c1ccc2c(c1)CCN2C(=O)C1CCC1` (stereo not given), the “lipid storage change, negative = inhibition” value was inactive: -6.29%. With `N#Cc1ccc(COC(=O)C2CC(=O)N(CCc3ccccc3)C2)cc1` (stereo not given) the lipid storage change, negative = inhibition was “inconclusive”. In the case of `O=C(Cc1ccccc1)Nc1ccc(NC(=O)C2CC2)nc1`, the Potency is reported as inconclusive: 0.103 µM [activator, full curve, poor fit]. For `OCC1(Cc2cccc(Cl)c2)CCCN(Cc2ccc(F)c(F)c2)C1` (stereo not given), the lipid storage change, negative = inhibition was inconclusive: -36.1%. In the case of `Cc1ccc(NC(=O)c2nc(S(=O)(=O)Cc3ccccc3C)ncc2Cl)cc1C`, the lipid storage change, negative = inhibition is reported as inconclusive: -100%. In the case of `CCCn1nnnc1SCC(=O)N1C(C)CCCC1C` (stereo not given), the lipid storage change, negative = inhibition is reported as inconclusive: 51.7%.
